Reference: the supplement of paper PMC6078165

Test system: Hs578T
Assay: relative JC-1 red fluorescence (viability) vs pre-drug, coculture with fibroblast (fraction); higher = more viable cancer cells
Settings: 1 µM
Description: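 JC-1 labelled TNBC cells cocultured 1:1 (1,500 cells each) with CellTrace Violet stained primary or stromal fibroblasts in 384-well plates in FluoroBrite medium, treated with one of 42 anticancer drugs at 0.1, 1, 10 or 100 uM. JC-1 red fluorescence (mitochondrial integrity in cancer cells only) was read by plate reader every 8 h for 72 h. Values are normalised to each well's pre-drug value. The stock of one drug was tenfold lower, so its dose labels may be too high.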

CO[C@H]1C[C@@H]2CC[C@@H](C)[C@@](O)(O2)C(=O)C(=O)N2CCCC[C@H]2C(=O)O[C@H]([C@H](C)C[C@@H]2CC[C@@H](OCCO)[C@H](OC)C2)CC(=O)[C@H](C)/C=C(\C)[C@@H](O)[C@@H](OC)C(=O)[C@H](C)C[C@H](C)/C=C/C=C/C=C/1C [Everolimus]
relative JC-1 red fluorescence (8 h): 0.918 ± 0.066
relative JC-1 red fluorescence (8 h, coculture fibroblast: C12385): 0.8477 ± 0.0012
relative JC-1 red fluorescence (8 h, coculture fibroblast: H6013): 0.918 ± 0.011
relative JC-1 red fluorescence (8 h, coculture fibroblast: H6019): 0.77419 ± 0.00026
relative JC-1 red fluorescence (8 h, coculture fibroblast: H6076): 0.8631 ± 0.0031
relative JC-1 red fluorescence (8 h, coculture fibroblast: H6231): 0.874 ± 0.054
relative JC-1 red fluorescence (8 h, coculture fibroblast: HADF): 0.899 ± 0.026
relative JC-1 red fluorescence (8 h, coculture fibroblast: HCFa): 0.859 ± 0.023
relative JC-1 red fluorescence (8 h, coculture fibroblast: HCPF): 0.849 ± 0.033
relative JC-1 red fluorescence (8 h, coculture fibroblast: HHSteC): 0.956 ± 0.027
relative JC-1 red fluorescence (8 h, coculture fibroblast: HMF): 0.822 ± 0.05
relative JC-1 red fluorescence (8 h, coculture fibroblast: HPFa): 0.966 ± 0.012
relative JC-1 red fluorescence (8 h, coculture fibroblast: HUF): 0.8475 ± 0.0036
relative JC-1 red fluorescence (8 h, coculture fibroblast: Hs27A): 0.89 ± 0.014
relative JC-1 red fluorescence (8 h, coculture fibroblast: Hs343T): 0.925 ± 0.018
relative JC-1 red fluorescence (8 h, coculture fibroblast: WS1): 0.7995 ± 0.0037
relative JC-1 red fluorescence (16 h): 0.818 ± 0.085
relative JC-1 red fluorescence (16 h, coculture fibroblast: C12385): 0.7814 ± 0.0074
relative JC-1 red fluorescence (16 h, coculture fibroblast: H6013): 0.8455 ± 0.0016
relative JC-1 red fluorescence (16 h, coculture fibroblast: H6019): 0.69 ± 0.018
relative JC-1 red fluorescence (16 h, coculture fibroblast: H6076): 0.8002 ± 0.0064
relative JC-1 red fluorescence (16 h, coculture fibroblast: H6231): 0.8 ± 0.069
relative JC-1 red fluorescence (16 h, coculture fibroblast: HADF): 0.852 ± 0.032
relative JC-1 red fluorescence (16 h, coculture fibroblast: HCFa): 0.779 ± 0.032
relative JC-1 red fluorescence (16 h, coculture fibroblast: HCPF): 0.775 ± 0.039
relative JC-1 red fluorescence (16 h, coculture fibroblast: HHSteC): 0.874 ± 0.033
relative JC-1 red fluorescence (16 h, coculture fibroblast: HMF): 0.746 ± 0.053
relative JC-1 red fluorescence (16 h, coculture fibroblast: HPFa): 0.936 ± 0.029
relative JC-1 red fluorescence (16 h, coculture fibroblast: HUF): 0.755 ± 0.036
relative JC-1 red fluorescence (16 h, coculture fibroblast: Hs27A): 0.85 ± 0.04
relative JC-1 red fluorescence (16 h, coculture fibroblast: Hs343T): 0.8521 ± 0.0074
relative JC-1 red fluorescence (16 h, coculture fibroblast: WS1): 0.684 ± 0.011
relative JC-1 red fluorescence (24 h): 0.761 ± 0.089
relative JC-1 red fluorescence (24 h, coculture fibroblast: C12385): 0.699 ± 0.032
relative JC-1 red fluorescence (24 h, coculture fibroblast: H6013): 0.789 ± 0.041
relative JC-1 red fluorescence (24 h, coculture fibroblast: H6019): 0.7153 ± 0.0033
relative JC-1 red fluorescence (24 h, coculture fibroblast: H6076): 0.7504 ± 0.004
relative JC-1 red fluorescence (24 h, coculture fibroblast: H6231): 0.684 ± 0.049
relative JC-1 red fluorescence (24 h, coculture fibroblast: HADF): 0.784 ± 0.044
relative JC-1 red fluorescence (24 h, coculture fibroblast: HCFa): 0.732 ± 0.045
relative JC-1 red fluorescence (24 h, coculture fibroblast: HCPF): 0.731 ± 0.025
relative JC-1 red fluorescence (24 h, coculture fibroblast: HHSteC): 0.785 ± 0.021
relative JC-1 red fluorescence (24 h, coculture fibroblast: HMF): 0.725 ± 0.097
relative JC-1 red fluorescence (24 h, coculture fibroblast: HPFa): 0.838 ± 0.018
relative JC-1 red fluorescence (24 h, coculture fibroblast: HUF): 0.678 ± 0.029
relative JC-1 red fluorescence (24 h, coculture fibroblast: Hs27A): 0.785 ± 0.04
relative JC-1 red fluorescence (24 h, coculture fibroblast: Hs343T): 0.771 ± 0.03
relative JC-1 red fluorescence (24 h, coculture fibroblast: WS1): 0.651 ± 0.021
relative JC-1 red fluorescence (32 h): 0.721 ± 0.082
relative JC-1 red fluorescence (32 h, coculture fibroblast: C12385): 0.62 ± 0.055
relative JC-1 red fluorescence (32 h, coculture fibroblast: H6013): 0.749 ± 0.053
relative JC-1 red fluorescence (32 h, coculture fibroblast: H6019): 0.637 ± 0.014
relative JC-1 red fluorescence (32 h, coculture fibroblast: H6076): 0.7483 ± 0.00085
relative JC-1 red fluorescence (32 h, coculture fibroblast: H6231): 0.661 ± 0.019
relative JC-1 red fluorescence (32 h, coculture fibroblast: HADF): 0.74 ± 0.037
relative JC-1 red fluorescence (32 h, coculture fibroblast: HCFa): 0.692 ± 0.045
relative JC-1 red fluorescence (32 h, coculture fibroblast: HCPF): 0.717 ± 0.03
relative JC-1 red fluorescence (32 h, coculture fibroblast: HHSteC): 0.729 ± 0.026
relative JC-1 red fluorescence (32 h, coculture fibroblast: HMF): 0.737 ± 0.091
relative JC-1 red fluorescence (32 h, coculture fibroblast: HPFa): 0.788 ± 0.037
relative JC-1 red fluorescence (32 h, coculture fibroblast: HUF): 0.586 ± 0.031
relative JC-1 red fluorescence (32 h, coculture fibroblast: Hs27A): 0.753 ± 0.038
relative JC-1 red fluorescence (32 h, coculture fibroblast: Hs343T): 0.759 ± 0.034
relative JC-1 red fluorescence (32 h, coculture fibroblast: WS1): 0.56 ± 0.0091
relative JC-1 red fluorescence (40 h): 0.653 ± 0.066
relative JC-1 red fluorescence (40 h, coculture fibroblast: C12385): 0.557 ± 0.048
relative JC-1 red fluorescence (40 h, coculture fibroblast: H6013): 0.687 ± 0.054
relative JC-1 red fluorescence (40 h, coculture fibroblast: H6019): 0.632 ± 0.014
relative JC-1 red fluorescence (40 h, coculture fibroblast: H6076): 0.7075 ± 0.0026
relative JC-1 red fluorescence (40 h, coculture fibroblast: H6231): 0.598 ± 0.0075
relative JC-1 red fluorescence (40 h, coculture fibroblast: HADF): 0.708 ± 0.057
relative JC-1 red fluorescence (40 h, coculture fibroblast: HCFa): 0.634 ± 0.043
relative JC-1 red fluorescence (40 h, coculture fibroblast: HCPF): 0.668 ± 0.019
relative JC-1 red fluorescence (40 h, coculture fibroblast: HHSteC): 0.663 ± 0.026
relative JC-1 red fluorescence (40 h, coculture fibroblast: HMF): 0.68 ± 0.092
relative JC-1 red fluorescence (40 h, coculture fibroblast: HPFa): 0.744 ± 0.061
relative JC-1 red fluorescence (40 h, coculture fibroblast: HUF): 0.527 ± 0.033
relative JC-1 red fluorescence (40 h, coculture fibroblast: Hs27A): 0.7 ± 0.032
relative JC-1 red fluorescence (40 h, coculture fibroblast: Hs343T): 0.687 ± 0.028
relative JC-1 red fluorescence (40 h, coculture fibroblast: WS1): 0.5078 ± 0.0018
relative JC-1 red fluorescence (48 h): 0.609 ± 0.069
relative JC-1 red fluorescence (48 h, coculture fibroblast: C12385): 0.522 ± 0.042
relative JC-1 red fluorescence (48 h, coculture fibroblast: H6013): 0.664 ± 0.048
relative JC-1 red fluorescence (48 h, coculture fibroblast: H6019): 0.618 ± 0.0083
relative JC-1 red fluorescence (48 h, coculture fibroblast: H6076): 0.715 ± 0.0075
relative JC-1 red fluorescence (48 h, coculture fibroblast: H6231): 0.57368 ± 0.00031
relative JC-1 red fluorescence (48 h, coculture fibroblast: HADF): 0.695 ± 0.066
relative JC-1 red fluorescence (48 h, coculture fibroblast: HCFa): 0.617 ± 0.046
relative JC-1 red fluorescence (48 h, coculture fibroblast: HCPF): 0.651 ± 0.023
relative JC-1 red fluorescence (48 h, coculture fibroblast: HHSteC): 0.629 ± 0.024
relative JC-1 red fluorescence (48 h, coculture fibroblast: HMF): 0.667 ± 0.11
relative JC-1 red fluorescence (48 h, coculture fibroblast: HPFa): 0.721 ± 0.079
relative JC-1 red fluorescence (48 h, coculture fibroblast: HUF): 0.492 ± 0.027
relative JC-1 red fluorescence (48 h, coculture fibroblast: Hs27A): 0.685 ± 0.02
relative JC-1 red fluorescence (48 h, coculture fibroblast: Hs343T): 0.662 ± 0.035
relative JC-1 red fluorescence (48 h, coculture fibroblast: WS1): 0.49 ± 0.0075
relative JC-1 red fluorescence (56 h): 0.59 ± 0.06
relative JC-1 red fluorescence (56 h, coculture fibroblast: C12385): 0.496 ± 0.043
relative JC-1 red fluorescence (56 h, coculture fibroblast: H6013): 0.634 ± 0.057
relative JC-1 red fluorescence (56 h, coculture fibroblast: H6019): 0.602 ± 0.016
relative JC-1 red fluorescence (56 h, coculture fibroblast: H6076): 0.7062 ± 0.0031
relative JC-1 red fluorescence (56 h, coculture fibroblast: H6231): 0.539 ± 0.0058
relative JC-1 red fluorescence (56 h, coculture fibroblast: HADF): 0.668 ± 0.079
relative JC-1 red fluorescence (56 h, coculture fibroblast: HCFa): 0.584 ± 0.05
relative JC-1 red fluorescence (56 h, coculture fibroblast: HCPF): 0.642 ± 0.007
relative JC-1 red fluorescence (56 h, coculture fibroblast: HHSteC): 0.603 ± 0.026
relative JC-1 red fluorescence (56 h, coculture fibroblast: HMF): 0.647 ± 0.11
relative JC-1 red fluorescence (56 h, coculture fibroblast: HPFa): 0.676 ± 0.1
relative JC-1 red fluorescence (56 h, coculture fibroblast: HUF): 0.458 ± 0.024
relative JC-1 red fluorescence (56 h, coculture fibroblast: Hs27A): 0.655 ± 0.015
relative JC-1 red fluorescence (56 h, coculture fibroblast: Hs343T): 0.621 ± 0.04
relative JC-1 red fluorescence (56 h, coculture fibroblast: WS1): 0.4718 ± 0.0046
relative JC-1 red fluorescence (64 h): 0.554 ± 0.056
relative JC-1 red fluorescence (64 h, coculture fibroblast: C12385): 0.483 ± 0.043
relative JC-1 red fluorescence (64 h, coculture fibroblast: H6013): 0.632 ± 0.065
relative JC-1 red fluorescence (64 h, coculture fibroblast: H6019): 0.599 ± 0.016
relative JC-1 red fluorescence (64 h, coculture fibroblast: H6076): 0.7015 ± 0.0038
relative JC-1 red fluorescence (64 h, coculture fibroblast: H6231): 0.517 ± 0.018
relative JC-1 red fluorescence (64 h, coculture fibroblast: HADF): 0.664 ± 0.08
relative JC-1 red fluorescence (64 h, coculture fibroblast: HCFa): 0.566 ± 0.041
relative JC-1 red fluorescence (64 h, coculture fibroblast: HCPF): 0.6092 ± 0.0016
relative JC-1 red fluorescence (64 h, coculture fibroblast: HHSteC): 0.578 ± 0.025
relative JC-1 red fluorescence (64 h, coculture fibroblast: HMF): 0.632 ± 0.1
relative JC-1 red fluorescence (64 h, coculture fibroblast: HPFa): 0.655 ± 0.12
relative JC-1 red fluorescence (64 h, coculture fibroblast: HUF): 0.446 ± 0.025
relative JC-1 red fluorescence (64 h, coculture fibroblast: Hs27A): 0.648 ± 0.0085
relative JC-1 red fluorescence (64 h, coculture fibroblast: Hs343T): 0.61 ± 0.051
relative JC-1 red fluorescence (64 h, coculture fibroblast: WS1): 0.4705 ± 0.0029
relative JC-1 red fluorescence (72 h): 0.544 ± 0.045
relative JC-1 red fluorescence (72 h, coculture fibroblast: C12385): 0.477 ± 0.035
relative JC-1 red fluorescence (72 h, coculture fibroblast: H6013): 0.607 ± 0.064
relative JC-1 red fluorescence (72 h, coculture fibroblast: H6019): 0.592 ± 0.014
relative JC-1 red fluorescence (72 h, coculture fibroblast: H6076): 0.713 ± 0.016
relative JC-1 red fluorescence (72 h, coculture fibroblast: H6231): 0.51 ± 0.03
relative JC-1 red fluorescence (72 h, coculture fibroblast: HADF): 0.641 ± 0.088
relative JC-1 red fluorescence (72 h, coculture fibroblast: HCFa): 0.533 ± 0.04
relative JC-1 red fluorescence (72 h, coculture fibroblast: HCPF): 0.6014 ± 0.0057
relative JC-1 red fluorescence (72 h, coculture fibroblast: HHSteC): 0.539 ± 0.024
relative JC-1 red fluorescence (72 h, coculture fibroblast: HMF): 0.629 ± 0.093
relative JC-1 red fluorescence (72 h, coculture fibroblast: HPFa): 0.621 ± 0.13
relative JC-1 red fluorescence (72 h, coculture fibroblast: HUF): 0.439 ± 0.029
relative JC-1 red fluorescence (72 h, coculture fibroblast: Hs27A): 0.61 ± 0.0082
relative JC-1 red fluorescence (72 h, coculture fibroblast: Hs343T): 0.6 ± 0.056
relative JC-1 red fluorescence (72 h, coculture fibroblast: WS1): 0.4732 ± 0.0043

± gives the standard deviation of the averaged measurements. Values are relative to the signal before dosing, not to a vehicle control; the signal also falls without drug.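 Fibroblast labels name human fibroblasts: mostly primary ones from tissues such as uterus (C12385, HUF), lung (H6013), bone (Hs27A), adrenal (HADF) and skin (WS1), plus mammary HMF and breast cancer-associated Hs343T. The cancer cells are basal-like or mesenchymal-like triple-negative breast cancer lines. The paper calls a changed response a hit when it shifts by more than 3x the replicate standard deviation. The tissue of the other fibroblasts is not given here.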
